Source: article PMC10436584
Like-named read-outs stand apart in the source and are kept apart here. No constants are given. Whether binding was seen depends on the method and setting. In cells and extracts the contact can be indirect. Some entries that bind do so weakly or less than the wild type.

By UniProt entry, the sequences of proteins in these tests, tags left out. Residues count along the entry.
UniProt P30561, residues 10-848: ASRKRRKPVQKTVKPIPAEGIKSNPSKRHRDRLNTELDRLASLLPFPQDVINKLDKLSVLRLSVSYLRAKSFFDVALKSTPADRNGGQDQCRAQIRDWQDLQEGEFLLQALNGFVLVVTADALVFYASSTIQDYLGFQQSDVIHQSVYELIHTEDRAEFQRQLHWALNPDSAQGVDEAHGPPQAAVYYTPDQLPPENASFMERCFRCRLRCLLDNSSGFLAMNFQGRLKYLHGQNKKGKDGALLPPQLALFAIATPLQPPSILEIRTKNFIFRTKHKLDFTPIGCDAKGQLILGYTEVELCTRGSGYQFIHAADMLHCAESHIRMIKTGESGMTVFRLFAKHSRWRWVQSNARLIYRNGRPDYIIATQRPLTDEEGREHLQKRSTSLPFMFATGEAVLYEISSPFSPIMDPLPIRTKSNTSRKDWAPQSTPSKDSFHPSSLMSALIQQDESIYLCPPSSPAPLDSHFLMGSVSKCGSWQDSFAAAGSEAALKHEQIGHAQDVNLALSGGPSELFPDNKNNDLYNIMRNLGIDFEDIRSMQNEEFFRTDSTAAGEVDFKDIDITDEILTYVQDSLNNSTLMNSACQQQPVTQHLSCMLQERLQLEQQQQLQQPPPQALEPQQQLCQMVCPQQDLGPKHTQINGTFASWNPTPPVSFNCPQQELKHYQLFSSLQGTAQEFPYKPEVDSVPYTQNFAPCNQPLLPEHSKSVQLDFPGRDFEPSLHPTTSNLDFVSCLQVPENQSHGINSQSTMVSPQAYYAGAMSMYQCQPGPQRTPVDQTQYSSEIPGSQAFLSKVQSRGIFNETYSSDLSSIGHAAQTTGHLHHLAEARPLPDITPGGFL
UniProt P53762: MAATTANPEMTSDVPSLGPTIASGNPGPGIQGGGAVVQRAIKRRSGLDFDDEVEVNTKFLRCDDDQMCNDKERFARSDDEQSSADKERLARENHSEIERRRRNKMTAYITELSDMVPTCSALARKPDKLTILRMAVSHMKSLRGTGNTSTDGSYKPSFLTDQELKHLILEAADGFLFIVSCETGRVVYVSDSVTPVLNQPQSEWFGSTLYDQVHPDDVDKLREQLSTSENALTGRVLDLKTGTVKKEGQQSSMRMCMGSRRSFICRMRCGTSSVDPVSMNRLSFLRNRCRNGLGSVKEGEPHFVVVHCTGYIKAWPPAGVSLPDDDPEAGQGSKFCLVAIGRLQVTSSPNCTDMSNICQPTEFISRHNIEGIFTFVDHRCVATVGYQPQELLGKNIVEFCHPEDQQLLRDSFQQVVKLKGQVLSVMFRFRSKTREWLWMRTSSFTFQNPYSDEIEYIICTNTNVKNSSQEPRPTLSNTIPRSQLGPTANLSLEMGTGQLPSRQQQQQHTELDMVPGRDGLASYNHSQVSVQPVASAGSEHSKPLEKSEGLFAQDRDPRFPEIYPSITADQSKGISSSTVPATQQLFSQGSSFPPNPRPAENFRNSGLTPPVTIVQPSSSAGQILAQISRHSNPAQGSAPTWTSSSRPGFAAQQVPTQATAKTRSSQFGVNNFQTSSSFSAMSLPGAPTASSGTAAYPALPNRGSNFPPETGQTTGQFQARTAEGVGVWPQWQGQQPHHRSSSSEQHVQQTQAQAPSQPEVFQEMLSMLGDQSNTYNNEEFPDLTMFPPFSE

Tests used:
[1] = molecular target: T1, Jun dimerization protein 2 (mouse (endogenous in MEFs)) (UniProt P97875); experiment: co-IP; endogenous proteins; nuclear fraction of WT and Jdp2-/- MEFs treated with DMSO or TCDD for 2, 6 or 24 h; 300 ug extract, 1 ug IP antibody or preimmune IgG at 4 °C overnight, protein G beads, Western blot
T1 sequence: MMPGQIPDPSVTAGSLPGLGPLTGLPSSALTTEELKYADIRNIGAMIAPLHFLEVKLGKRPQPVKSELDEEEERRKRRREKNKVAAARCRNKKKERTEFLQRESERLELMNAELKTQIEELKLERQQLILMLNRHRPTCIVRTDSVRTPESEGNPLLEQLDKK

[2] = molecular target: aryl hydrocarbon receptor (mouse (endogenous in MEFs)) (UniProt P30561); experiment: as above
[3] = molecular target: aryl hydrocarbon receptor (mouse (endogenous in MEFs)) (UniProt P30561); experiment: co-IP; endogenous proteins; Jdp2-/- MEFs after 6 and 24 h of TCDD; IP with antibody to the AhR, Western blot
[4] = molecular target: aryl hydrocarbon receptor (mouse (endogenous in MEFs)) (UniProt P30561); experiment: co-IP; endogenous proteins; nuclear fraction of WT and Jdp2-/- MEFs treated with DMSO or TCDD for 2, 6 or 24 h; 300 ug extract, 1 ug IP antibody or preimmune IgG at 4 °C overnight, protein G beads, Western blot; remark: listed apart in the source
[5] = molecular target: T1, Jun dimerization protein 2 (mouse (endogenous in MEFs)); experiment: as above; remark: listed apart in the source
[6] = molecular target: aryl hydrocarbon receptor (mouse (endogenous in MEFs)) (UniProt P30561); experiment: co-IP; endogenous proteins; cytoplasmic fraction of DMSO- and TCDD-treated MEFs; IP with antibody to the AhR, Western blot

In the case of “aryl hydrocarbon receptor (from UniProt P30561 10-848)”, the binding [1] is reported as “binds”.

With “AhR nuclear translocator (from UniProt P53762 1-791)” the binding [2] was “binds”.

B1: nuclear factor (erythroid-derived 2)-like 2 (protein, UniProt Q60795 1-597)
chain: MMDLELPPPGLQSQQDMDLIDILWRQDIDLGVSREVFDFSQRQKDYELEKQKKLEKERQEQLQKEQEKAFFAQFQLDEETGEFLPIQPAQHIQTDTSGSASYSQVAHIPKQDALYFEDCMQLLAETFPFVDDHESLALDIPSHAESSVFTAPHQAQSLNSSLEAAMTDLSSIEQDMEQVWQELFSIPELQCLNTENKQLADTTAVPSPEATLTEMDSNYHFYSSISSLEKEVGNCGPHFLHGFEDSFSSILSTDDASQLTSLDSNPTLNTDFGDEFYSAFIAEPSDGGSMPSSAAISQSLSELLDGTIEGCDLSLCKAFNPKHAEGTMEFNDSDSGISLNTSPSRASPEHSVESSIYGDPPPGFSDSEMEELDSAPGSVKQNGPKAQPAHSPGDTVQPLSPAQGHSAPMRESQCENTTKKEVPVSPGHQKAPFTKDKHSSRLEAHLTRDELRAKALHIPFPVEKIINLPVDDFNEMMSKEQFNEAQLALIRDIRRRGKNKVAAQNCRKRKLENIVELEQDLGHLKDEREKLLREKGENDRNLHLLKRRLSTLYLEVFSMLRDEDGKPYSPSEYSLQQTRDGNVFLVPKSKKPDTKKN
With B1 the binding [3] was “no binding (condition: Jdp2-/- MEFs, 6 and 24 h of TCDD)”, the binding [4] was “binds” and the binding [5] was “binds”. For the same molecule, the binding [6] was “no binding (condition: cytoplasmic fraction)”.
